Data on two molecules can be found in article PMC3976342.

Results are given in words; binding and its absence hold for the method and conditions named. Binding calls can cover weak binding; strength is not graded here. Sequences can lack the tags named with a protein.

This test addresses Nhtt150Q-EGFP (exon 1 of huntingtin containing 150Q, tagged with EGFP at its C-terminus). Put plainly: co-insolubilisation (gel top band on Western blot); neuro2a cells co-transfected with Nhtt-EGFP and V5-tagged proteins, one day, cells boiled in SDS sample buffer, Western blot with anti-V5 and anti-GFP; gel top bands of the V5-tagged protein.

B1: Tcf20 (1∼500)-V5 (domain or fragment, UniProt Q9EPQ8 1-500)
chain: MQSFREQSSYHGNQQSYPQEVHSSSRIEEFSPRQAQMFQNFGGAGGGSSGTGSSSSGRRGTAAAAAAMASETSGHQGYQGFRKEAGDFYYMAGNKDTVAAGTPQPPQRRPSGPVQSYGPPQGSSFGNQYASEGHVSQFQAQHSALGGVSHYQQDYTGPFSPGSAQYQQQASSQQQQQQQQQQQQQQQQQQQQVQQLRQQLYQSHQPLPQTTGQPASGSSHLQPMQRPSTLPSSAGYQLRVGQFGQHYQSSASSSSSSSFPSPQRFSQSGQSYDGSYSVNAGSQYEGHNVGSNAQAYGTQSNYSYQPQSMKNFEQAKIPPGNQQGQQQQQQQPQPQQQQPQQQQQQQQQQQHPPQHVMQYTNAATKMPLQSQVGQYNQPEVPVRSPMQFHQNFSPISNPSPAASVVQSPSCSSTPSPLMQSGENLQCGQGNVPMSSRNRILQLMPQLSPTPSMMPSPNSHAAGFKGFGLEGVPEKRLTDPGLSSLSALSSQVANLPNTVQH
As for B1, the binding entry is reported as “binds”.

B2: Tcf20 (1∼400)-V5 (domain or fragment, UniProt Q9EPQ8 1-400)
chain: MQSFREQSSYHGNQQSYPQEVHSSSRIEEFSPRQAQMFQNFGGAGGGSSGTGSSSSGRRGTAAAAAAMASETSGHQGYQGFRKEAGDFYYMAGNKDTVAAGTPQPPQRRPSGPVQSYGPPQGSSFGNQYASEGHVSQFQAQHSALGGVSHYQQDYTGPFSPGSAQYQQQASSQQQQQQQQQQQQQQQQQQQQVQQLRQQLYQSHQPLPQTTGQPASGSSHLQPMQRPSTLPSSAGYQLRVGQFGQHYQSSASSSSSSSFPSPQRFSQSGQSYDGSYSVNAGSQYEGHNVGSNAQAYGTQSNYSYQPQSMKNFEQAKIPPGNQQGQQQQQQQPQPQQQQPQQQQQQQQQQQHPPQHVMQYTNAATKMPLQSQVGQYNQPEVPVRSPMQFHQNFSPISNPSP
Turning to B2, the binding entry is given as “binds”.
